Source: publication PMC7948726
These are yes or no findings as the source states them, for the method shown. Binding seen in cells or lysates may run through a third protein. Sequences can lack the tags named with a protein.

The chains behind the UniProt entries cited, without tags or fusion partners. Where a name states a change or a piece, a line headed by the entry shows the natural chain unless it says otherwise. A line that says so, or that is headed by a name, gives the form on record, which may keep a tag or linker.
V5-Tau (P10636-6, form named): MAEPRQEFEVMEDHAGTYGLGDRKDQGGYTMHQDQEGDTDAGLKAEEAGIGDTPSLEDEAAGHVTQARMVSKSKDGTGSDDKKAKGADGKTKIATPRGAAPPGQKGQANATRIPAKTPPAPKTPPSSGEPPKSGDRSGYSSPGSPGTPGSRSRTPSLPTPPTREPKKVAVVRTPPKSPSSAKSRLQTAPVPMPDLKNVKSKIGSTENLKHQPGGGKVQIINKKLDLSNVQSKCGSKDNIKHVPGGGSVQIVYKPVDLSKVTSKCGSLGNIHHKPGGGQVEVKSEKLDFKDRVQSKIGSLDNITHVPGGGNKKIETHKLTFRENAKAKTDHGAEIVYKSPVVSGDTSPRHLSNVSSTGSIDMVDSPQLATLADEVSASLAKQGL

Experiments:
Myc-PPM1A = target: T1, Myc-PPM1A (UniProt P35813); test: co-IP; HEK293 cells transfected 24 h with V5-Tau, Myc-PPM1A or Myc-PPM1B; precipitated with anti-Myc, blot with anti-V5
T1 sequence: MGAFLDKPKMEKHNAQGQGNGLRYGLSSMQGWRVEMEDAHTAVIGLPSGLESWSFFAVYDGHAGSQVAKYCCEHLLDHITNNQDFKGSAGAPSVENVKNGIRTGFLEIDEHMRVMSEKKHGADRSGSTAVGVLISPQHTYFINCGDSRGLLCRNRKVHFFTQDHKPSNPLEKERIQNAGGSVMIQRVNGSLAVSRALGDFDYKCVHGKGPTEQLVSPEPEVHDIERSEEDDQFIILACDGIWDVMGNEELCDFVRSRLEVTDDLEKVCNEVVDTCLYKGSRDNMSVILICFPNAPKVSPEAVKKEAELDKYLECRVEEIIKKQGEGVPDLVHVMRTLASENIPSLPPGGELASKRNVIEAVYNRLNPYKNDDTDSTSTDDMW

Myc-PPM1B (human) = target: T2, Myc-PPM1B (human) (UniProt O75688); test: as above
T2 sequence: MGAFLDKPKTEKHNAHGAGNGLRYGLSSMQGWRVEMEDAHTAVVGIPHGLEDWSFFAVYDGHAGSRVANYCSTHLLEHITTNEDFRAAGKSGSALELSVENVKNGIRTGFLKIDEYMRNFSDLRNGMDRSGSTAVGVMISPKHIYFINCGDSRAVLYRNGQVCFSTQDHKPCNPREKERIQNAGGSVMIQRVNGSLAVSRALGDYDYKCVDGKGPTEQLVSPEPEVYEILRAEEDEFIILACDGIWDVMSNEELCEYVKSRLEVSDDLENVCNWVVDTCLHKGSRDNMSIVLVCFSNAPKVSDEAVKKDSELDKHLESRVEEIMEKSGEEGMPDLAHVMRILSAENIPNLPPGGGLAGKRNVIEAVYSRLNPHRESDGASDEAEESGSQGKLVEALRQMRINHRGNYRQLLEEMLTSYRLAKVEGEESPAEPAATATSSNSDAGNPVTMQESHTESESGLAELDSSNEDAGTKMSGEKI

binding (Myc-PPM1A): no binding
binding (Myc-PPM1B (human)): no binding
Substance: V5-Tau (from UniProt P10636-6 1-383)
